Measurements reported in PubChem BioAssay AID504795 (Drosophila RNAi Screening Center, 2011).
Only reagents picked out of a larger screen are listed. 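Every listed dsRNA shows some phenotype; how reagents were selected for listing is not stated.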 Reagents against one gene are numbered here. A plus sign joins genes that one reagent is predicted to hit.

- Screen: 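Fly genes whose loss alters neurite growth or neural cell form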 (primary screen)
- System: primary Drosophila neurons and glia
- Knock-down reagent: long dsRNA against Drosophila genes, 250 ng dsRNA per well
- Duration: one week
- Measurement: 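GFP-labelled neurons and glia imaged live by automated microscope one week after 250 ng dsRNA per well; morphology scored by eye as descriptive phenotype terms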

phenotype seen, replicate 1	phenotype seen, replicate 2	gene knocked down	reagent
sheet-like cell extensions		cic (capicua)	1
axon bundles split apart		Mnt	1
abnormal cell clusters		CCDC151 (Coiled-coil domain containing protein 151)	1
too many neurite branches		PRL-1 (PRL-1 phosphatase)	1
too many neurite branches		luna	1
too many neurite branches		Gr47b (Gustatory receptor 47b)	1
too many neurite branches		CG14646	1
axon bundles split apart		rl (rolled)	1
axon bundles split apart		Klp64D (Kinesin-like protein at 64D)	1
reduced axon outgrowth		TotE (Turandot E)	1
too many neurite branches		RpS24 (Ribosomal protein S24)	1
sheet-like cell extensions		tkv (thickveins)	1
too many neurite branches		pygo (pygopus)	1
beaded; swollen axons		sha (shavenoid)	1
abnormal cell clusters		CG13218	1
reduced axon outgrowth		Pig1 (Pre-intermoult gene 1)	1
too many neurite branches		nab	1
too many neurite branches		CG31551	1
fewer cells		Targ (Tarag)	1
axon bundles split apart		ppk (pickpocket)	1
cell fragments present		CG42699	1
reduced axon outgrowth		RpS9 (Ribosomal protein S9)	1
abnormal cell clusters		Trm7-34 (tRNA methyltransferase 7-34)	1
sheet-like cell extensions		CG15605	1
axon bundles split apart		CG8773	1
sheet-like cell extensions		CG6034	1
sheet-like cell extensions		CG7059	1
reduced axon outgrowth		Hml (Hemolectin)	1
cell fragments present		CG15365	1
reduced axon outgrowth		cg (combgap)	1
axon bundles split apart	sheet-like cell extensions	CG13457	1
axon bundles split apart		mRpS33 (mitochondrial ribosomal protein S33)	1
reduced axon outgrowth		CG8170	1
abnormal cell clusters		CG6503	1
axon bundles split apart		CG12377 (retired record)	1
beaded; swollen axons		CG7692	1
abnormal cell clusters		Cpr76Bc (Cuticular protein 76Bc)	1
cell fragments present		crn (crooked neck)	1
axon bundles split apart		crn (crooked neck)	2
too many neurite branches		Lcp4 (Larval cuticle protein 4)	1
too many neurite branches		CG17698	1
axon bundles split apart		JMJD4 (Jumonji domain containing 4)	1
cell fragments present		CG3630	1
axon bundles split apart		CG3222	1
too many neurite branches		l(1)10Bb (lethal (1) 10Bb)	1
fewer cells		Lcp3 (Larval cuticle protein 3)	1
axon bundles split apart		E(spl)m7-HLH (Enhancer of split m7, helix-loop-helix)	1
abnormal cell clusters		cactin	1
too many neurite branches		RpL39 (Ribosomal protein L39)	1
cell fragments present		Prp6 (pre-mRNA processing factor 6)	1
axon bundles split apart		CG5885	1
axon bundles split apart		CG14632 (retired record)	1
reduced axon outgrowth		CG14606	1
too many neurite branches		Lasp	1
too many neurite branches		CG15237	1
too many neurite branches		klar (klarsicht)	1
axon bundles split apart		CG13744	1
axon bundles split apart		dpr12 (defective proboscis extension response 12)	1
beaded; swollen axons		RpL26 (Ribosomal protein L26)	1
axon bundles split apart		CG31121	1
abnormal cell clusters		Capr (Caprin)	1
more self-contacts of neurites		CG8509	1
axon bundles split apart		RpL4 (Ribosomal protein L4)	1
fewer cells		CG33278	1
too many neurite branches		Polr2M (RNA polymerase II subunit M)	1
abnormal cell clusters		comm3	1
cell fragments present		Polr1D + DCTN6-p27	1
beaded; swollen axons		RpS18 (Ribosomal protein S18)	1
too many neurite branches		FoxP (Forkhead box P)	1
axon bundles split apart		stv (starvin)	1
too many neurite branches		CG34203	1
axon bundles split apart		Cpr64Ac (Cuticular protein 64Ac)	1
axon bundles split apart		futsch	1
too many neurite branches		Polr2G (RNA polymerase II subunit G)	1
axon bundles split apart		Rpp30 (RNaseP protein p30)	1
sheet-like cell extensions		Vha16-3 (Vacuolar H[+] ATPase 16kD subunit 3)	1
abnormal cell clusters		Psn (Presenilin)	1
sheet-like cell extensions		CG14696	1
reduced axon outgrowth		Ugt37B1 (UDP-glycosyltransferase family 37 member B1)	1
abnormal cell clusters		dbo (diablo)	1
axon bundles split apart		CG31917 + Tfb5	1
axon bundles split apart		CG9003	1
too many neurite branches		CG10991 (retired record)	1
too many neurite branches		Syx4 (Syntaxin 4)	1
beaded; swollen axons	too many neurite branches	MESK2 + CG10494	1
too many neurite branches		Rcd-1 (Required for cell differentiation 1)	1
abnormal cell clusters		CG32833	1
axon bundles split apart		betaTub60D (beta-Tubulin at 60D)	1
cell fragments present		pll (pelle)	1
axon bundles split apart		CG4278	1
too many neurite branches		sta (stubarista)	1
axon bundles split apart		Rheb (Ras homolog enriched in brain)	1
axon bundles split apart		BtbVII (BTB-protein-VII)	1
axon bundles split apart		D19A	1
axon bundles split apart		app (approximated)	1
too many neurite branches		smal (smoke alarm)	1
axon bundles split apart		ena (enabled)	1
abnormal cell clusters		Pbgs (Porphobilinogen synthase)	1
too many neurite branches		bero (belly roll)	1
axon bundles split apart		Cyp6a23 (Cytochrome P450 6a23)	1
too many neurite branches		CG3704	1
reduced axon outgrowth		Yif1 (Yip1-interacting factor 1)	1
axon bundles split apart		twi (twist)	1
too many neurite branches		Paip2 (polyA-binding protein interacting protein 2)	1
axon bundles split apart		CG33262	1
too many neurite branches		drd (drop dead)	1
axon bundles split apart		Tengl4 (Testis EndoG-Like 4)	1
beaded; swollen axons		Shark (SH2 ankyrin repeat kinase)	1
fewer cells		Arf6 (ADP ribosylation factor 6)	1

5 neighbouring records from above:
phenotype seen, replicate 1	phenotype seen, replicate 2	gene knocked down	reagent
too many neurite branches		Syx4 (Syntaxin 4)	1
beaded; swollen axons	too many neurite branches	MESK2 + CG10494	1
too many neurite branches		Rcd-1 (Required for cell differentiation 1)	1
abnormal cell clusters		CG32833	1
axon bundles split apart		betaTub60D (beta-Tubulin at 60D)	1
